Consider two molecules from article doi:10.1101/847996.

Sequences of proteins named here, by UniProt entry; tags and fusion partners are left off.
UniProt Q7Z6Z7: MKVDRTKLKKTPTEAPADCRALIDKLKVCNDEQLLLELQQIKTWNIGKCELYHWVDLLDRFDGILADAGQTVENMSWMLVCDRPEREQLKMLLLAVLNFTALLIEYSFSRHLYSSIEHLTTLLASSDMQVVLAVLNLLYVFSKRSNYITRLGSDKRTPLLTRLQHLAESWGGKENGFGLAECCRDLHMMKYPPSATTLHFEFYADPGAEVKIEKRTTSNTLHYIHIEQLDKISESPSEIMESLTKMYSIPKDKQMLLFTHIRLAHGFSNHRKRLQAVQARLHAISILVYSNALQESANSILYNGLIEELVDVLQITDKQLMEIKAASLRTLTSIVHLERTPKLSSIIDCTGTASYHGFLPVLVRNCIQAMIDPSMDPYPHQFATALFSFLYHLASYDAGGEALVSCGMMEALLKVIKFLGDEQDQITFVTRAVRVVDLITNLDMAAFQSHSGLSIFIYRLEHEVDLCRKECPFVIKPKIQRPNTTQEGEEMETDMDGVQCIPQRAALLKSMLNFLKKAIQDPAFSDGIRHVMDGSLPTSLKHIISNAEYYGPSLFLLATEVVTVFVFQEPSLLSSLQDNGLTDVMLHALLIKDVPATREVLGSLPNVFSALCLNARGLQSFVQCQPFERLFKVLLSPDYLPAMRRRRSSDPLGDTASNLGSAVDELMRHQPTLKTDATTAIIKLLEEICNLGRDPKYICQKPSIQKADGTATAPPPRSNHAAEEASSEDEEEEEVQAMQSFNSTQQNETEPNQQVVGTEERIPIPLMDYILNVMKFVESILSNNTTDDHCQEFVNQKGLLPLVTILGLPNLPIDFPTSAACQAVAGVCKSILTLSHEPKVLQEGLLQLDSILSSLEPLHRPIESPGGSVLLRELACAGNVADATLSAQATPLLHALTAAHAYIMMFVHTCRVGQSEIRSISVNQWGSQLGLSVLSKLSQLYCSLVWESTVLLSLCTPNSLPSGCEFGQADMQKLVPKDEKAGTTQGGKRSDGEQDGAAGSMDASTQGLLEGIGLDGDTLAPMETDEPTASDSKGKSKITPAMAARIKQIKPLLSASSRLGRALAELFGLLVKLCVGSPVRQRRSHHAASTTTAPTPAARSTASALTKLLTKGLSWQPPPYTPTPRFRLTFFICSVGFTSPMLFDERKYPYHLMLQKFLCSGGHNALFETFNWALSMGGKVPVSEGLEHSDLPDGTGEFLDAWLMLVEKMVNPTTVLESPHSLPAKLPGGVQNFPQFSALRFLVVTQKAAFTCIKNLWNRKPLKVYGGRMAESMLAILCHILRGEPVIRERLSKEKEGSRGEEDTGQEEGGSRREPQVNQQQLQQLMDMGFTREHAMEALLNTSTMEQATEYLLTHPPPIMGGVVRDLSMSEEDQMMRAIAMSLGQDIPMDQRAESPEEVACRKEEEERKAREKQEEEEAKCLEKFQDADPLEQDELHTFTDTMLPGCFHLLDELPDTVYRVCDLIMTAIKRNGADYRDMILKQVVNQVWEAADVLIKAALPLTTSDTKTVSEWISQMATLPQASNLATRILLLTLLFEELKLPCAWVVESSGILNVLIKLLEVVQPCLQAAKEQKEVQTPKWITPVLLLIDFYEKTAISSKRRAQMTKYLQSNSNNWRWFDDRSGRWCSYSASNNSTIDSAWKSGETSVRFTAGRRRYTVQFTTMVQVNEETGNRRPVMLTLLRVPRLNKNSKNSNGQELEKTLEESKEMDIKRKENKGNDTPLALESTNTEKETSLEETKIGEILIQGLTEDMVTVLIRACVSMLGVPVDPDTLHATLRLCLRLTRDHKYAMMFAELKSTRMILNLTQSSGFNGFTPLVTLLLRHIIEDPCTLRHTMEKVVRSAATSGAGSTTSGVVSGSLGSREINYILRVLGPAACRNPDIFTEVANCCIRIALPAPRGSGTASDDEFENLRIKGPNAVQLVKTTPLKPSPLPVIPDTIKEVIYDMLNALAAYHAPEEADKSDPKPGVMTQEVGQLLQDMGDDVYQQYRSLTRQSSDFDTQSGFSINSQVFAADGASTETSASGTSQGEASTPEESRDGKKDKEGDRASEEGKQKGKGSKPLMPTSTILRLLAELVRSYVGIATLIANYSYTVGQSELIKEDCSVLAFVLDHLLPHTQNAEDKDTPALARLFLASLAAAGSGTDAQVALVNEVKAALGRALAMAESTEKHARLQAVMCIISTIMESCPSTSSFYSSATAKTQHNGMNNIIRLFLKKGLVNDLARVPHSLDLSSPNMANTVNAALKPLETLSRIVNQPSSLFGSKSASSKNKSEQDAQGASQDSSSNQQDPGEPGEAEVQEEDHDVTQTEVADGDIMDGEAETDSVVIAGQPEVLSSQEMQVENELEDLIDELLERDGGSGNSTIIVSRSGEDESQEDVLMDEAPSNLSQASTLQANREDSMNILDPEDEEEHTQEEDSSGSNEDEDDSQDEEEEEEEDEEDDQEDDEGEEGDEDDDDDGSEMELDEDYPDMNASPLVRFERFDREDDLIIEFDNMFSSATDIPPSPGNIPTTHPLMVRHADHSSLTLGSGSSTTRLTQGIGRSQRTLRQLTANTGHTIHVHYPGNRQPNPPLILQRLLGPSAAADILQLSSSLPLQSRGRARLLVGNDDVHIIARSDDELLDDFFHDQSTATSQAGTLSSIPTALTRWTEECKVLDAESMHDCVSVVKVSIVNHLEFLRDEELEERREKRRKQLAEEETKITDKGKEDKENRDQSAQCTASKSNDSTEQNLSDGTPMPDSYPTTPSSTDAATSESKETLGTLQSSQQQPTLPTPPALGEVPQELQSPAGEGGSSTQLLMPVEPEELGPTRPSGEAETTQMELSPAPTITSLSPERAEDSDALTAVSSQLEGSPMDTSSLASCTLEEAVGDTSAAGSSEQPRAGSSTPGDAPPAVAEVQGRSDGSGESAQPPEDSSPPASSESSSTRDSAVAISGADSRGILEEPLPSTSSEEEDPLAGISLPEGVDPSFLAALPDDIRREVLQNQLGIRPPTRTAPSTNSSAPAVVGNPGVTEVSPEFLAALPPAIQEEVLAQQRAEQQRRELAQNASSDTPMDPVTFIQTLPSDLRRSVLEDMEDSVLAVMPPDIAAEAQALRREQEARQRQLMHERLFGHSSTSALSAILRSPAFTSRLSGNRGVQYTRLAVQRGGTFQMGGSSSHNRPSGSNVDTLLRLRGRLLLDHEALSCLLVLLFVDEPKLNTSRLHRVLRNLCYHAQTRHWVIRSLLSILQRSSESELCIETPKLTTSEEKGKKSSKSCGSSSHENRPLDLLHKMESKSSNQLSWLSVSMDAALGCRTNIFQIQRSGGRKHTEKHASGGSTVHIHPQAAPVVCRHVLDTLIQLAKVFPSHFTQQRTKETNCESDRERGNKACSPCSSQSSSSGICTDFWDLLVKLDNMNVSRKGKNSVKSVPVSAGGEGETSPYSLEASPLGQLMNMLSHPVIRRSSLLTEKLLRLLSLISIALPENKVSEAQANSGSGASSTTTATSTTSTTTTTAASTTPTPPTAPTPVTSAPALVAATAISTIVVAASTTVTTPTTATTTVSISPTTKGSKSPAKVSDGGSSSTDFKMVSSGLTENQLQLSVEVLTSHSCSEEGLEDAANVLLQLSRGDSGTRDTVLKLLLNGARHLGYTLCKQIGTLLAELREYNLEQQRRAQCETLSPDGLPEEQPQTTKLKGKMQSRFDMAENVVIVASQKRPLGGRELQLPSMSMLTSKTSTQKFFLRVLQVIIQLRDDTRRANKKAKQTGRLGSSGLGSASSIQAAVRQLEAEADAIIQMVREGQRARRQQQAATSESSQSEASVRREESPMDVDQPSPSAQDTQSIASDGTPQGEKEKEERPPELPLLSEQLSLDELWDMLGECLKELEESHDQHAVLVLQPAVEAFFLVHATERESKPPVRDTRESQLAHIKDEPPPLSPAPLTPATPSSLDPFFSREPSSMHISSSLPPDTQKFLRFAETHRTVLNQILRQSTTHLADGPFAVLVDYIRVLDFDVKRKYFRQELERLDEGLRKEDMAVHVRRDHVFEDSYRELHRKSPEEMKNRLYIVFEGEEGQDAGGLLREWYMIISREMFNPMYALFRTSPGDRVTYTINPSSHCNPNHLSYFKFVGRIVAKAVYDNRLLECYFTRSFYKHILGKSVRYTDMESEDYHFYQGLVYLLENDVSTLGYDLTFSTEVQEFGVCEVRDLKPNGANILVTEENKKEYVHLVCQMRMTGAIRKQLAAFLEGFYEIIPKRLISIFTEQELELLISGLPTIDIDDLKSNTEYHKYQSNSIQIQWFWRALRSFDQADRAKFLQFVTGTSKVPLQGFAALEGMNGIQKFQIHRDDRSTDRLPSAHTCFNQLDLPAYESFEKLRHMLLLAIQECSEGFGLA

The target in test [1] is T1, 3xFLAG-tagged C16orf72 (human) (UniProt Q14CZ0).
T1 sequence: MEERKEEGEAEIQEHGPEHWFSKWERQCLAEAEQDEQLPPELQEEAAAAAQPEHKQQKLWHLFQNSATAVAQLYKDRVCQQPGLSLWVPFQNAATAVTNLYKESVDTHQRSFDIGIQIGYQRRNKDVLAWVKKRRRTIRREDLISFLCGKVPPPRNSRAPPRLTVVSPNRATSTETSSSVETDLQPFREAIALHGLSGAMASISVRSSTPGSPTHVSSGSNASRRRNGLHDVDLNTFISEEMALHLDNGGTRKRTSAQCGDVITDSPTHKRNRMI
Briefly: co-IP.

For test [2], the target named is Hect ubiquitin E3 ligase HUWE1 (human (endogenous in HEK293T)) (UniProt Q7Z6Z7). The test can be described thus: co-IP.

No constants are given. Whether binding was seen depends on the method and setting. In cells and extracts the contact can be indirect. Some binding calls cover weakened binding; strength is not graded here. Tags and fused reporters may be left off the sequences shown.

Take “Hect ubiquitin E3 ligase HUWE1 (from UniProt Q7Z6Z7 1-4374) (enzyme)”: the binding entry in test [1] is listed as “binds”.

B1: 3xFLAG-tagged C16orf72 (protein, UniProt Q14CZ0 1-275)
chain: MEERKEEGEAEIQEHGPEHWFSKWERQCLAEAEQDEQLPPELQEEAAAAAQPEHKQQKLWHLFQNSATAVAQLYKDRVCQQPGLSLWVPFQNAATAVTNLYKESVDTHQRSFDIGIQIGYQRRNKDVLAWVKKRRRTIRREDLISFLCGKVPPPRNSRAPPRLTVVSPNRATSTETSSSVETDLQPFREAIALHGLSGAMASISVRSSTPGSPTHVSSGSNASRRRNGLHDVDLNTFISEEMALHLDNGGTRKRTSAQCGDVITDSPTHKRNRMI
For B1, the binding result in test [2] is given as “binds”.
